# From PMC4703963
# Sequences of proteins named here, by UniProt entry; tags and fusion partners are left off. A change or cut given only in a name is not applied to a line headed by its entry.
# UniProt Q9GZT9: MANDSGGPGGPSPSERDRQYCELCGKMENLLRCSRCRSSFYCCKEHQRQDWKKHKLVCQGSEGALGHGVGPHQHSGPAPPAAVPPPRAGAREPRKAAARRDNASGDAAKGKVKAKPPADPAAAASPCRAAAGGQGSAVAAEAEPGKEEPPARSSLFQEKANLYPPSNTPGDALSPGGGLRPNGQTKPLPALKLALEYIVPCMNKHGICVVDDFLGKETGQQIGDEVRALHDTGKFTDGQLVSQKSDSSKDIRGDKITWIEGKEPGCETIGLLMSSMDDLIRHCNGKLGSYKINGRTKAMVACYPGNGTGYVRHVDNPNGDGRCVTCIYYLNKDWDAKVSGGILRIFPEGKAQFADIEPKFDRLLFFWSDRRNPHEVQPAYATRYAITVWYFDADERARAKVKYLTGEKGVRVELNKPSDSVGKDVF
# These are yes or no findings as the source states them, for the method shown.
# Columns and labels:
# [1] = biological target: C326S HA-PHD2 purified from HEK293T cells (human) (UniProt Q9GZT9); assay: non-reducing SDS-PAGE with immunoblot; tagged PHD2 affinity-purified (Flag or HA gel, peptide elution) from H2O2-treated HEK293T cells, run without DTT; both purified
# [2] = biological target: Flag-tagged PHD2 purified from HEK293T cells (human) (UniProt Q9GZT9); assay: non-reducing SDS-PAGE with immunoblot; Flag-PHD2 affinity-purified from H2O2-treated HEK293T cells, in the presence of DTT; both purified
# [3] = biological target: Prolyl hydroxylase domain protein 2 (PHD2), endogenous (human (endogenous in U2OS, H2030, A549)) (UniProt Q9GZT9); assay: condition: only cells incubated with 3 mM NAC for 16 h; non-reducing SDS-PAGE with immunoblot; H-ras V12 overexpressing U2OS cells incubated 16 h with 3 mM NAC before lysis
# [4] = biological target: Prolyl hydroxylase domain protein 2 (PHD2), endogenous (human (endogenous in U2OS, H2030, A549)) (UniProt Q9GZT9); assay: non-reducing SDS-PAGE with immunoblot; lysates of oxidant-treated or H-ras V12 cells incubated with 100 mM DTT before the gel, or sample buffer with β-ME
substance,measurement,setting,value
C326S HA-PHD2 purified from HEK293T cells (from UniProt Q9GZT9 1-426),binding,[1],no binding
Flag-tagged PHD2 purified from HEK293T cells (from UniProt Q9GZT9 1-426),binding,[2],no binding (condition: in the presence of DTT)
"Prolyl hydroxylase domain protein 2 (PHD2), endogenous (from UniProt Q9GZT9 1-426)",binding,[3],no binding
same,binding,[4],no binding (condition: lysates incubated with 100 mM DTT)
